In publication PMC11472053, “Structural basis of DNA recognition by BEN domain proteins reveals a role for oligomerization in unmethylated DNA selection by BANP” (Nucleic Acids Research, 2024) one finds binding data, which are given here for two molecules.

Test [1] addresses BEN domain of BANP (human) (UniProt Q8N9N5). As to the kind of experiment: SEC; gel filtration profiles of purified BANP and its truncations, compared with ferritin (440 kDa) and aldolase (158 kDa); column and buffer of the analytical run not told; both purified. (In general: Size exclusion chromatography separates by hydrodynamic size, large species first.)
For test [2], the target named is full-length BANP (human) (UniProt Q8N9N5). Described as above.

Results are given in words; binding and its absence hold for the method and conditions named. Some entries that bind do so weakly or less than the wild type.

B1: BEN domain of BANP (domain or fragment, UniProt Q8N9N5 205-325)
chain: ITLNSEEDYPNGTWLGDENNPEMRVRCAIIPSDMLHISTNCRTAEKMALTLLDYLFHREVQAVSNLSGQGKHGKKQLDPLTIYGIRCHLFYKFGITESDWYRIKQSIDSKCRTAWRRKQRG
Turning to B1, the binding result in test [1] is given as “no binding”.

B2: full-length BANP (natural protein, human, UniProt Q8N9N5 1-519, looked up)
chain: MMSEHDLADVVQIAVEDLSPDHPVVLENHVVTDEDEPALKRQRLEINCQDPSIKTICLRLDSIEAKLQALEATCKSLEEKLDLVTNKQHSPIQVPMVAGSPLGATQTCNKVRCVVPQTTVILNNDRQNAIVAKMEDPLSNRAPDSLENVISNAVPGRRQNTIVVKVPGQEDSHHEDGESGSEASDSVSSCGQAGSQSIGSNVTLITLNSEEDYPNGTWLGDENNPEMRVRCAIIPSDMLHISTNCRTAEKMALTLLDYLFHREVQAVSNLSGQGKHGKKQLDPLTIYGIRCHLFYKFGITESDWYRIKQSIDSKCRTAWRRKQRGQSLAVKSFSRRTPNSSSYCPSEPMMSTPPPASELPQPQPQPQALHYALANAQQVQIHQIGEDGQVQVGHLHIAQVPQGEQVQITQDSEGNLQIHHVGQDGQLLEATRIPCLLAPSVFKASSGQVLQGAQLIAVASSDPAAAGVDGSPLQGSDIQVQYVQLAPVSDHTAGAQTAEALQPTLQPEMQLEHGAIQIQ
notes: BANP, human, full length; also called SMAR1; source: E. coli Rosetta (DE3), purified (nickel column, HiTrap Q, gel filtration)
For the molecule B2, the binding entry in test [2] is “binds”.
